From PubChem BioAssay AID2685 (National Center for Advancing Translational Sciences (NCATS), 2010) come the findings set out here.

Some of the results follow. These are further read-outs of the screen, such as a control signal, another cell line or another target. No call is given for them. The list favours compounds with an active or inconclusive main result. Potencies come from curve fits of mixed quality, noted in brackets.

The AC50 is the concentration at which the activity in the assay is half-maximal.

This test in a line: qHTS Assay for Lipid Storage Modulators in Drosophila S3 Cells.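 As to cell number change: cells counted by Cell Tracker Red CMTPX staining in the red channel.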 The conditions noted are these: BODIPY lipid droplet fluorescence, 18-24 h; for cell number change: measured here: cell count max response, cells fed with added oleic acid. Summed up:
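Laser-scanning cytometry quantifies lipid droplet accumulation (500–530 nm total intensity; droplet/cell object ratio) in oleic acid-fed (400 uM added) Drosophila S3 cells treated with a concentration series. 20 uM Triacsin C defined 100% inhibition.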

Setting [1] is: measured here: lipid fluorescence (Fed channel) AC50, cells fed with added oleic acid.
Where [2] appears, read: measured here: cell number channel AC50, cells fed with added oleic acid.

For `COc1ccc(C(=O)C2CCCN(C(=O)C3=CCCC3)C2)c(C)c1` (centres undefined), the cell number change was -20.5%. Also, the concentration at half-maximal activity (AC50) under setting [1] was 29.1 µM [falling, single point]. In the case of `COc1ccc(C[C@H]2CN3C(=NC[C@H]3Cc3ccccc3)N2CCNC(=O)c2ccc(C)c(Br)c2)cc1`, the cell number change was -71%. Further, under setting [2], the concentration at half-maximal activity (AC50) was 29.1 µM [falling, single point]. In addition, the AC50 under setting [1] is 25.9 µM [falling, partial curve]. For `CCOc1ncccc1C(=O)OCc1cc(=O)oc2c(C)c(C)ccc12`, the cell number change was 2.94%. In addition, under setting [1], the AC50 is 5.17 µM [falling, single point]. On to `Cc1cc(C(=O)COC(=O)C2=NNC(=O)CC2)c(C)n1-c1ccccc1`, for which the cell number change is 6.74%. Take `Cc1cc2c(ncn2C(C)C)c(NS(=O)(=O)c2ccc(F)cc2)c1C`: the cell number change was 32.3%. Besides, the AC50 under setting [2] is 16.4 µM [rising, single point]. Also, the AC50 under setting [1] is 9.2 µM [rising, partial curve, poor fit]. Turning to `O=C(NCC1CCCO1)C1CCCN1C(=O)Nc1ccccc1[N+](=O)[O-]` (centres undefined), the cell number change was found to be 3.95%. Further, the AC50 under setting [1] is 35.5 µM [rising, single point]. As to `CCN1CC(CN(C)Cc2nc(-c3ccc(OC)c4ccccc34)oc2C)CC1=O` (centres undefined), the cell number change is 8.23%. In addition, the AC50 under setting [2] was 0.651 µM [rising, full curve, poor fit]. `S=c1nc(-c2sccc2OCc2ccc(Cl)cc2Cl)[nH][nH]1`: the cell number change stood at 0.913%. Further, the AC50 under setting [2] was 1.03 µM [rising, full curve]. Besides, the AC50 under setting [1] is 1.84 µM [rising, partial curve]. Take `Cc1cc(C)c(C#N)c(Nc2ccc3c(c2)OCCO3)n1`: the cell number change is -20%. In addition, the AC50 under setting [2] is 0.116 µM [falling, full curve, poor fit]. Moreover, the concentration at half-maximal activity (AC50) under setting [1] is 1.16 µM [falling, full curve].

On to `CC1=NNC(=O)C1CC(=O)N/N=C/c1ccc(C)o1` (centres undefined), for which the cell number change came out at 25.3%. Under setting [1], the AC50 was 29.1 µM [rising, partial curve, poor fit].

On to `CCCCOc1ccc(-c2ncc([N+](=O)[O-])cn2)cc1`, for which the cell number change was -4.59%. Also, under setting [2], the AC50 is 1.64 µM [rising, partial curve, poor fit]. Further, the AC50 under setting [1] is 0.651 µM [rising, partial curve, poor fit]. Take `O=C(CN1CC(c2ccccc2)CC1=O)Nc1ccc2c(c1)OCO2` (centres undefined): the cell number change turned out to be 16.6%. Besides, the AC50 under setting [1] was 0.731 µM [rising, partial curve]. Regarding `O=C(CCCc1ccccc1)c1ccccc1`, the cell number change stood at 16.7%. The AC50 under setting [1] is 29.1 µM [rising, partial curve].

With `CSc1nc(C)cc(OCC#N)n1`, the cell number change turned out to be 17.2%. For the same compound, under setting [1], the concentration at half-maximal activity (AC50) was 0.651 µM [rising, full curve, poor fit].

Regarding `CCC(C)(C)c1ccc(OCCCC[n+]2cccc(C)c2C)c(C(C)(C)CC)c1`, the cell number change was -67.3%. For the same compound, under setting [2], the AC50 was 2.91 µM [falling, full curve]. Further, the AC50 under setting [1] was 2.31 µM [falling, partial curve, poor fit]. Consider `OC(CNCC#Cc1ccccc1)c1ccccc1` (centres undefined), for which the cell number change is -37.1%. Turning to `COCCCNS(=O)(=O)c1ccc(S(=O)(=O)N2CCCC2)cc1`, under setting [1], the AC50 was 2.91 µM [falling, partial curve, poor fit]. Turning to `O=C(NCCc1ccccc1)c1ccccc1NC(=O)C1CCCO1` (centres undefined), the cell number change is 136%.

As to `CCOC(=O)c1c(N)c(C#N)c2n1CCCCC2`, the cell number change is -11.5%. For the same compound, the AC50 under setting [1] is 0.164 µM [falling, full curve, poor fit]. For the compound `COc1ccc(C)cc1NC(=O)C1CCCN1S(=O)(=O)c1ccccc1F` (centres undefined), the cell number change is -26.6%. As for `COc1ccc(-c2cn3cccnc3n2)cc1Br`, the cell number change was determined as 21.5%. In addition, under setting [1], the AC50 is 6.51 µM [rising, single point]. For the compound `O=C1c2ccccc2NC(c2ccc(O)cc2)N1c1ccccc1` (centres undefined), the cell number change was -1.39%. For `CSCCC(NS(=O)(=O)c1ccccc1F)C(=O)NCc1cccnc1` (centres undefined), the cell number change stood at 50.6%. In addition, the AC50 under setting [2] was 13 µM [rising, partial curve, poor fit]. For `CCOCCCNC(=O)C(NC(=O)c1ccccc1O)c1ccc(Cl)cc1` (centres undefined), the cell number change came to 1.6%. On to `O=C(CSC1CN(C(c2ccccc2)c2ccccc2)C1)N/N=C/c1ccc(Cl)cc1Cl`, for which the cell number change is 22%. Also, the AC50 under setting [1] is 29.1 µM [rising, single point]. Take `NC(=O)c1ccc(-c2nnc(Nc3ccc(S(N)(=O)=O)cc3)c3ccccc23)cc1`: the cell number change was -18.3%. Moreover, the AC50 under setting [1] is 29.1 µM [falling, single point]. As for `O=S(=O)(CC(CN1CCCC1)N1CCCC1)c1ccc2ccccc2c1` (centres undefined), under setting [1], the AC50 is 9.2 µM [falling, partial curve]. On the same count and under the same terms, for `Cc1ccc(-c2noc(CSc3nnnn3-c3ccccc3)n2)cc1` the value was 25.9 µM [falling, single point]. Take `CCOC(=O)CC(NC(=O)Cc1cccs1)c1ccccc1Cl` (centres undefined): the cell number change is -1.42%.

In the case of `CCC(=O)NCCc1nc2cc(NC(=O)c3ccccc3OC)ccc2n1C`, the cell number change was 41.5%. Under setting [2], the AC50 was 0.058 µM [rising, full curve, poor fit]. Regarding `CCN(CC)c1ccc(NC(=O)CCN2C(=O)c3ccccc3S2(=O)=O)c(C)c1`, the cell number change is 20.5%.

Regarding `O=C1CN(c2ccccc2)C(=S)N1C(=O)c1ccccc1`, the cell number change was -14.3%. Moreover, under setting [1], the concentration at half-maximal activity (AC50) was 0.00461 µM [falling, full curve, poor fit]. For the compound `CCn1c(Cc2ccccc2)nnc1SC(C)C(=O)NC1CC1` (centres undefined), the cell number change stood at 9.78%. Also, under setting [1], the AC50 is 0.82 µM [rising, full curve]. Turning to `c1ccc(-c2ccc3nnnn3n2)cc1`, the cell number change is -14.4%. In addition, the AC50 under setting [1] is 4.11 µM [falling, single point]. For the compound `O=C(Nc1cc(Cl)ccc1N1CCCCC1)c1cccs1`, the cell number change worked out at 34.5%. The AC50 under setting [2] was 0.82 µM [rising, full curve]. Moreover, under setting [1], the AC50 is 2.31 µM [rising, partial curve]. Turning to `CCCCC(=O)Nc1cccc(-c2cn3ccccc3n2)c1`, the cell number change was -29.8%. Under setting [1], the concentration at half-maximal activity (AC50) was 7.31 µM [falling, partial curve]. Regarding `Nc1nonc1C(=O)N1CCCCC1`, the AC50 under setting [1] was 0.58 µM [rising, single point]. As to `O=C1NC(=O)/C(=C/c2cccc3ccccc23)S1`, the cell number change was -19.5%. Also, under setting [1], the AC50 is 29.1 µM [rising, single point]. Consider `COc1cc(OC)c(N2CC34C=CC(O3)C(C(=O)O)C4C2=O)cc1Cl` (centres undefined), for which the cell number change was -42.6%. Moreover, the AC50 under setting [2] is 25.9 µM [falling, single point]. Besides, the AC50 under setting [1] was 29.1 µM [falling, single point].

As to `CN1c2ccccc2C(O)=C(C(=S)Nc2ccccc2)S1(=O)=O`, the cell number change is -24.9%. Also, the AC50 under setting [1] is 1.3 µM [falling, full curve]. As to `Cc1ccc(C2C(/C=C3/SC(=S)NC3=O)=C(c3cccs3)Oc3ccccc32)cc1` (centres undefined), the cell number change was -14.4%. Also, under setting [1], the AC50 is 0.0058 µM [falling, full curve, poor fit]. On to `CN(CC(=O)NCc1ccc(Cl)cc1)S(=O)(=O)c1cccs1`, for which the cell number change came to 1.35%. Moreover, the AC50 under setting [1] was 29.1 µM [rising, single point]. In the case of `COc1ccc(-c2coc3cc4oc(=O)c(CC(=O)O)c(C)c4cc23)cc1`, the cell number change turned out to be 44.4%. Under setting [2], the AC50 was 7.31 µM [rising, full curve]. Moreover, the AC50 under setting [1] is 29.1 µM [falling, single point]. Turning to `CCNC(=S)N1CCN(C(=O)c2ccco2)CC1`, the cell number change was determined as 21%. In addition, the AC50 under setting [1] was 18.4 µM [rising, single point]. With `O=C(CSc1nnc(C2CC2)n1C1CC1)Nc1cccc(Br)c1`, the cell number change is -45.8%. The AC50 under setting [2] was 0.82 µM [falling, full curve]. For the same compound, the AC50 under setting [1] was 0.164 µM [falling, full curve]. As for `CC(=O)N1CCN(c2ccc(NC(=O)C(C)Oc3ccc(Cl)cc3Cl)cc2)CC1` (centres undefined), under setting [1], the AC50 is 0.731 µM [rising, single point]. On to `N#CCc1nn2c3c(cnc2c1C#N)C(=O)CCC3`, for which the cell number change was -33.6%. As to `CSc1ccc(-c2nnn(Cc3ccc(C)cc3)n2)cc1`, the cell number change was found to be 87%. Also, the AC50 under setting [2] was 29.1 µM [rising, single point]. In addition, the AC50 under setting [1] was 6.51 µM [rising, single point]. Take `O=C(Nc1cc(Cl)ccc1Oc1ccccc1)c1cnccn1`: the cell number change was -0.0134%. As for `Cc1cc(C)nc(N2CCN(c3ncnc4c3cnn4Cc3ccc(Cl)cc3Cl)CC2)n1`, the cell number change is -13.1%. For the same compound, the AC50 under setting [2] was 0.291 µM [rising, full curve]. Moreover, the AC50 under setting [1] is 0.517 µM [rising, full curve]. Take `COc1ccc(/C=C/C(=O)NC(=S)Nc2ccc(S(=O)(=O)Nc3nccnc3OC)cc2)cc1`: the AC50 under setting [2] was 6.51 µM [rising, single point] and the AC50 under setting [1] was 6.51 µM [rising, partial curve, poor fit]. Consider `CC(C)(C)c1cc[n+](/C(C(=S)NC2CC2)=C(/[O-])c2ccc(Cl)s2)cc1`, for which the cell number change was 2.11%. The AC50 under setting [2] is 6.51 µM [falling, single point]. `CC(=O)N1[C@H](C)C=C[C@]1(Cc1ccccc1)C(=O)O`: the cell number change was determined as 26.9%. In addition, the AC50 under setting [1] is 4.61 µM [rising, full curve, poor fit]. `Cc1ccccc1CS(=O)(=O)c1nnc([C@H](Cc2ccccc2)NC(=O)OC(C)(C)C)o1`: the cell number change was -62.6%. Besides, the AC50 under setting [2] was 0.517 µM [falling, full curve]. In addition, the AC50 under setting [1] was 16.4 µM [falling, partial curve].

For the compound `Cc1ccc(Oc2nnc(-c3cccs3)c3ccccc23)cc1`, the cell number change was 2.36%. The AC50 under setting [1] is 0.116 µM [rising, full curve, poor fit]. As to `Cc1sc(NC(=O)CSc2nnc3scc(-c4ccccc4)n23)c(C#N)c1C`, the cell number change was -60%. Further, the AC50 under setting [2] was 20.6 µM [falling, single point]. In addition, under setting [1], the AC50 was 29.1 µM [falling, single point].

In the case of `COc1ccc(-n2c(Cc3cccn3C)nnc2SCC(=O)Nc2cc(Cl)ccc2OC)cc1`, the cell number change was -29.6%. In addition, under setting [1], the AC50 was 13 µM [falling, partial curve, poor fit]. Consider `CCOc1ccc(NC(=O)C2CCCN2C(=O)Oc2ccccc2)cc1` (centres undefined), for which the cell number change was 32.1%. In addition, the AC50 under setting [2] is 18.4 µM [rising, single point]. `COc1ccc(N(CC(=O)N/N=C/c2ccc(-c3ccc([N+](=O)[O-])cc3)o2)S(=O)(=O)c2ccc(C)cc2)cc1Cl`: the cell number change is -26.6%. Moreover, under setting [1], the AC50 was 29.1 µM [falling, single point]. Turning to `CC(=O)c1cc2c(cc1NS(=O)(=O)c1ccc(F)cc1)OCO2`, the cell number change was 27%. Under setting [1], the AC50 is 0.00517 µM [rising, full curve, poor fit].
